No constants are given. Whether binding was seen depends on the method and setting. Some entries that bind do so weakly or less than the wild type.
Molecular target: T1, mouse zymogen NSP4 (mZ) (mouse), Q14B24
T1 chain: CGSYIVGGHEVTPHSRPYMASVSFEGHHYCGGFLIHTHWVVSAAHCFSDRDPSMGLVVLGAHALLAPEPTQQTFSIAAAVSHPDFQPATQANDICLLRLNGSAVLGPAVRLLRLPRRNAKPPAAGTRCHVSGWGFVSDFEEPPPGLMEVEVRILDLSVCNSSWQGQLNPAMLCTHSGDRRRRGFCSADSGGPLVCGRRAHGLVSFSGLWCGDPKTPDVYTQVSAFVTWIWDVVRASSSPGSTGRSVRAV
Test: BLI; IgG1 on anti-human Fc sensor, NSP4 variant in solution, concentration not on sheet
Details: remark: other sources report otherwise

B1: anti-NSP4 antibody 5-2 (antibody, V domains shown)
VH: EVQLVESGGGLVQPGGSLRLSCAASGFTFSNTYISWVRQAPGKGLEWVGFIYPANGATYYADSVKGRFTISADTSKNTAYLQMNSLRAEDTAVYYCARRYRLSFDYWGQGTLVTVSS
VL: DIQMTQSPSSLSASVGDRVTITCRASQDVSTAVAWYQQKPGKAPKLLIYSASFLYSGVPSRFSGSGSGTDFTLTISSLQPEDFATYYCQQSYTTPPTFGQGTKVEIKR
binding: binds

Source: patent US20160215065A1 (Genentech, published 2016)
